Experimental data taken from the supplement of paper PMC6078165.

Test system: MDAMB231
Assay: relative JC-1 red fluorescence (viability) vs pre-drug, coculture with fibroblast (fraction); higher = more viable cancer cells
Experimental: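 JC-1 labelled TNBC cells cocultured 1:1 (1,500 cells each) with CellTrace Violet stained primary or stromal fibroblasts in 384-well plates in FluoroBrite medium, treated with one of 42 anticancer drugs at 0.1, 1, 10 or 100 uM. JC-1 red fluorescence (mitochondrial integrity in cancer cells only) was read by plate reader every 8 h for 72 h. Values are normalised to each well's pre-drug value. The stock of one drug was tenfold lower, so its dose labels may be too high.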

O=C(O)C1(C(=O)O)CCC1.[NH2-].[NH2-].[Pt+2] [Carboplatin]
relative JC-1 red fluorescence
Conditions | 8 h | 16 h | 24 h | 32 h | 40 h | 48 h | 56 h | 64 h | 72 h
0.1 µM, coculture fibroblast: C12385 | 0.776 ± 0.01 | 0.737 ± 0.028 | 0.655 ± 0.024 | 0.618 ± 0.019 | 0.555 ± 0.03 | 0.525 ± 0.037 | 0.479 ± 0.035 | 0.475 ± 0.036 | 0.455 ± 0.035
0.1 µM, coculture fibroblast: H6013 | 0.88005 ± 0.00038 | 0.817 ± 0.0092 | 0.777 ± 0.011 | 0.774 ± 0.029 | 0.734 ± 0.042 | 0.724 ± 0.065 | 0.7 ± 0.073 | 0.682 ± 0.084 | 0.636 ± 0.087
0.1 µM, coculture fibroblast: H6019 | 0.756 ± 0.02 | 0.6713 ± 0.0022 | 0.635 ± 0.025 | 0.604 ± 0.034 | 0.563 ± 0.046 | 0.549 ± 0.061 | 0.501 ± 0.074 | 0.483 ± 0.08 | 0.439 ± 0.075
0.1 µM, coculture fibroblast: H6076 | 0.889 ± 0.015 | 0.802 ± 0.013 | 0.743 ± 0.019 | 0.722 ± 0.018 | 0.667 ± 0.023 | 0.634 ± 0.033 | 0.601 ± 0.037 | 0.586 ± 0.047 | 0.572 ± 0.057
0.1 µM, coculture fibroblast: H6231 | 0.901 ± 0.025 | 0.802 ± 0.021 | 0.715 ± 0.024 | 0.664 ± 0.022 | 0.605 ± 0.021 | 0.568 ± 0.015 | 0.521 ± 0.011 | 0.5002 ± 0.0044 | 0.4727 ± 0.0024
0.1 µM, coculture fibroblast: HADF | 0.885 ± 0.028 | 0.851 ± 0.031 | 0.8 ± 0.0084 | 0.7756 ± 0.003 | 0.75 ± 0.021 | 0.712 ± 0.033 | 0.686 ± 0.027 | 0.668 ± 0.033 | 0.631 ± 0.038
0.1 µM, coculture fibroblast: HCFa | 0.878 ± 0.011 | 0.81 ± 0.023 | 0.745 ± 0.024 | 0.697 ± 0.036 | 0.648 ± 0.056 | 0.599 ± 0.049 | 0.564 ± 0.035 | 0.532 ± 0.049 | 0.498 ± 0.047
0.1 µM, coculture fibroblast: HCPF | 0.8956 ± 0.0032 | 0.791 ± 0.008 | 0.697 ± 0.014 | 0.674 ± 0.011 | 0.611 ± 0.015 | 0.564 ± 0.03 | 0.519 ± 0.027 | 0.482 ± 0.03 | 0.46 ± 0.038
0.1 µM, coculture fibroblast: HHSteC | 0.8987 ± 0.007 | 0.832 ± 0.015 | 0.778 ± 0.014 | 0.726 ± 0.024 | 0.673 ± 0.016 | 0.648 ± 0.012 | 0.607 ± 0.017 | 0.577 ± 0.019 | 0.54 ± 0.018
0.1 µM, coculture fibroblast: HMF | 0.867 ± 0.017 | 0.7658 ± 0.0044 | 0.6742 ± 0.0058 | 0.638 ± 0.015 | 0.581 ± 0.027 | 0.538 ± 0.037 | 0.492 ± 0.036 | 0.472 ± 0.048 | 0.45 ± 0.037
0.1 µM, coculture fibroblast: HPFa | 0.948 ± 0.018 | 0.91 ± 0.045 | 0.841 ± 0.055 | 0.786 ± 0.079 | 0.747 ± 0.084 | 0.694 ± 0.074 | 0.644 ± 0.068 | 0.612 ± 0.061 | 0.568 ± 0.047
0.1 µM, coculture fibroblast: HUF | 0.803 ± 0.028 | 0.691 ± 0.019 | 0.653 ± 0.038 | 0.526 ± 0.039 | 0.46 ± 0.034 | 0.43 ± 0.036 | 0.385 ± 0.048 | 0.374 ± 0.052 | 0.354 ± 0.048
0.1 µM, coculture fibroblast: Hs5 | 0.851 ± 0.0093 | 0.76 ± 0.013 | 0.698 ± 0.0023 | 0.655 ± 0.013 | 0.612 ± 0.021 | 0.558 ± 0.032 | 0.522 ± 0.039 | 0.49 ± 0.046 | 0.464 ± 0.041
0.1 µM, coculture fibroblast: Hs27A | 0.86277 ± 0.00078 | 0.81428 ± 3.9e-05 | 0.7689 ± 0.0059 | 0.75 ± 0.023 | 0.699 ± 0.02 | 0.622 ± 0.015 | 0.62 ± 0.018 | 0.596 ± 0.017 | 0.545 ± 0.02
0.1 µM, coculture fibroblast: Hs343T | 0.88 ± 0.019 | 0.809 ± 0.035 | 0.714 ± 0.039 | 0.685 ± 0.042 | 0.626 ± 0.052 | 0.576 ± 0.061 | 0.529 ± 0.06 | 0.502 ± 0.056 | 0.475 ± 0.061
0.1 µM, coculture fibroblast: WS1 | 0.7587 ± 0.0061 | 0.696 ± 0.0073 | 0.594 ± 0.029 | 0.553 ± 0.014 | 0.495 ± 0.0084 | 0.466 ± 0.015 | 0.419 ± 0.016 | 0.397 ± 0.029 | 0.371 ± 0.029
1 µM, coculture fibroblast: C12385 | 0.7436 ± 0.0029 | 0.714 ± 0.037 | 0.678 ± 0.022 | 0.62 ± 0.035 | 0.496 ± 0.083 | 0.516 ± 0.078 | 0.499 ± 0.067 | 0.506 ± 0.064 | 0.495 ± 0.069
1 µM, coculture fibroblast: H6013 | 0.893 ± 0.017 | 0.8222 ± 0.0022 | 0.777 ± 0.01 | 0.755 ± 0.022 | 0.718 ± 0.029 | 0.69 ± 0.021 | 0.666 ± 0.022 | 0.642 ± 0.043 | 0.588 ± 0.03
1 µM, coculture fibroblast: H6019 | 0.765 ± 0.03 | 0.703 ± 0.03 | 0.677 ± 0.061 | 0.657 ± 0.025 | 0.623 ± 0.056 | 0.603 ± 0.072 | 0.55 ± 0.078 | 0.516 ± 0.098 | 0.467 ± 0.11
1 µM, coculture fibroblast: H6076 | 0.854 ± 0.071 | 0.798 ± 0.088 | 0.762 ± 0.11 | 0.748 ± 0.11 | 0.703 ± 0.1 | 0.673 ± 0.094 | 0.653 ± 0.089 | 0.63 ± 0.077 | 0.609 ± 0.048
1 µM, coculture fibroblast: H6231 | 0.9173 ± 0.0051 | 0.826 ± 0.051 | 0.803 ± 0.12 | 0.762 ± 0.15 | 0.718 ± 0.18 | 0.687 ± 0.2 | 0.649 ± 0.21 | 0.629 ± 0.22 | 0.595 ± 0.21
1 µM, coculture fibroblast: HADF | 0.8845 ± 0.0065 | 0.8237 ± 0.0013 | 0.7818 ± 0.0031 | 0.739 ± 0.0097 | 0.701 ± 0.013 | 0.67 ± 0.011 | 0.645 ± 0.0069 | 0.6348 ± 0.0045 | 0.581 ± 0.0077
1 µM, coculture fibroblast: HCFa | 0.859 ± 0.013 | 0.825 ± 0.024 | 0.778 ± 0.027 | 0.736 ± 0.025 | 0.684 ± 0.018 | 0.631 ± 0.018 | 0.592 ± 0.0093 | 0.556 ± 0.0097 | 0.505 ± 0.014
1 µM, coculture fibroblast: HCPF | 0.8788 ± 0.0032 | 0.763 ± 0.023 | 0.707 ± 0.012 | 0.685 ± 0.013 | 0.62 ± 0.013 | 0.586 ± 0.014 | 0.558 ± 0.017 | 0.531 ± 0.0092 | 0.509 ± 0.015
1 µM, coculture fibroblast: HHSteC | 0.872 ± 0.02 | 0.835 ± 0.021 | 0.793 ± 0.039 | 0.734 ± 0.042 | 0.683 ± 0.036 | 0.659 ± 0.048 | 0.618 ± 0.068 | 0.588 ± 0.06 | 0.545 ± 0.06
1 µM, coculture fibroblast: HMF | 0.8645 ± 0.002 | 0.77 ± 0.044 | 0.7 ± 0.043 | 0.656 ± 0.041 | 0.604 ± 0.046 | 0.56 ± 0.052 | 0.523 ± 0.053 | 0.503 ± 0.045 | 0.478 ± 0.044
1 µM, coculture fibroblast: HPFa | 0.931 ± 0.015 | 0.86 ± 0.011 | 0.799 ± 0.0092 | 0.7361 ± 0.0046 | 0.7019 ± 0.0062 | 0.658 ± 0.016 | 0.598 ± 0.013 | 0.558 ± 0.013 | 0.498 ± 0.011
1 µM, coculture fibroblast: HUF | 0.837 ± 0.013 | 0.733 ± 0.0081 | 0.701 ± 0.035 | 0.583 ± 0.012 | 0.5146 ± 0.0043 | 0.488 ± 0.018 | 0.439 ± 0.021 | 0.42 ± 0.026 | 0.4 ± 0.029
1 µM, coculture fibroblast: Hs5 | 0.856 ± 0.067 | 0.783 ± 0.046 | 0.714 ± 0.012 | 0.6623 ± 0.0036 | 0.617 ± 0.031 | 0.556 ± 0.04 | 0.517 ± 0.043 | 0.486 ± 0.054 | 0.455 ± 0.058
1 µM, coculture fibroblast: Hs27A | 0.8773 ± 0.007 | 0.8263 ± 0.0023 | 0.7886 ± 0.0034 | 0.7528 ± 0.00058 | 0.7033 ± 0.0062 | 0.646 ± 0.015 | 0.638 ± 0.01 | 0.622 ± 0.014 | 0.565 ± 0.01
1 µM, coculture fibroblast: Hs343T | 0.823 ± 0.053 | 0.703 ± 0.044 | 0.627 ± 0.061 | 0.583 ± 0.07 | 0.526 ± 0.078 | 0.473 ± 0.092 | 0.436 ± 0.098 | 0.42 ± 0.1 | 0.396 ± 0.1
1 µM, coculture fibroblast: WS1 | 0.7106 ± 0.0042 | 0.655 ± 0.0095 | 0.564 ± 0.0088 | 0.51 ± 0.022 | 0.453 ± 0.0068 | 0.4209 ± 0.0038 | 0.376 ± 0.0094 | 0.364 ± 0.016 | 0.337 ± 0.02

± gives the standard deviation of the averaged measurements. Values are relative to the signal before dosing, not to a vehicle control; the signal also falls without drug.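 Fibroblast labels name human fibroblasts: mostly primary ones from tissues such as uterus (C12385, HUF), lung (H6013), bone (Hs27A), adrenal (HADF) and skin (WS1), plus mammary HMF and breast cancer-associated Hs343T. The cancer cells are basal-like or mesenchymal-like triple-negative breast cancer lines. The paper calls a changed response a hit when it shifts by more than 3x the replicate standard deviation. The tissue of the other fibroblasts is not given here.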
